# For at least one compound, name, drawing or mass did not settle the structure.
# Legend:
# sciatic nerve [1] = test: Sensory block: additives in the injection fluid with bupivacaine microspheres (Table 2); assay type: in vivo, rat
# Description: Sensory anesthesia was measured by the time required for each rat to withdraw its hind paw from a 56° C. plate (IITC Life Science Instruments, Model 35-D, Woodland Hills, Calif.). The rats were allowed to adjust to their surroundings in a quiet room for at least 30 minutes before testing. The rats were held with a cloth gently. wrapped above their waist to restrain the upper extremities and obstruct vision. The rats were positioned to stand with one hind paw on a hot plate and the other on a room temperature plate. With a computer data collection system to (Apple IIe with a footpad switch), latency to withdraw each hind paw to the hot plate was recorded by alternating paws and allowing at least fifteen seconds of recovery between each measurement. If no withdrawal occurred from the hot plate within 12 seconds, the trial was terminated to prevent injury and the termination time was recorded. Testing ended after five measurements per side, the high and low points were disregarded, and the mean of the remaining three points was calculated for each side. Animals were handled in accordance with institutional, state and federal guidelines.
# (§1) At least five rats were used in each test.
# (§2) Sensory blockade or anesthesia effect was examined using art-known techniques. In addition, motor tests were performed at each time point to examined each rat's ability to hop and to place weight on it's hind leg by art-known techniques. Each leg was tested three times, and the latency of the contralateral leg was tested to provide a control. The animals were handled and cared for according to institution, state, and federal regulations.
# sciatic nerve [2] = test: Rat sciatic nerve anesthesia in vivo with injected microspheres with or without incorporated dexamethasone; settings: versus corresponding microspheres without dexamethasone
# sciatic nerve [3] = test: Motor block: additives in the injection fluid with bupivacaine microspheres (Table 2); assay type: in vivo, rat; settings: FIG. 5B
# Description: The rats were behaviorally tested for sensory and motor anesthesia in a quiet observation room. Testing was only performed in rats showing appropriate baseline hot plate latencies after at least-one week of testing. In all testing conditions, the experimenter recording the behavior was unaware of the side containing the local anesthetic. To assess motor anesthesia, a 4-point scale based on visual observation was devised: (1) normal appearance, (2) intact dorsiflexion of foot with an impaired ability to splay toes when elevated by the tail, (3) toes and foot remained plantar flexed with no splaying ability, and (4) loss of dorsiflexion, flexion of toes, and impairment of gait. For graphing clarity, partial motor anesthesia equals a score of 2 and dense motor anesthesia is a score of either 3 or 4.
# as §1, §2
# [4] = In vitro release of bupivacaine (and dexamethasone) from microspheres; assay type: physicochemical; settings: radiolabeled drug, data not shown
# [5] = In vitro release of dexamethasone from CPP:SA (20:80) dexamethasone/bupivacaine pellets; assay type: physicochemical; settings: PBS, 37° C.
# sciatic nerve [6] = test: Sciatic blockade by liquid bupivacaine and/or dexamethasone in solution (Table 1); assay type: in vivo, rat; settings: for sciatic blockade by itself in solution (in words): aqueous solution, no bupivacaine; for prolongation of blockade from bupivacaine in solution (in words): co-administered with bupivacaine in solution
# Description: as §1, §2
# sciatic nerve [7] = test: Restoration of waning motor anesthesia by dexamethasone; assay type: in vivo, rat; settings: 0.5%, injected 6 hours after bupivacaine microspheres, FIG. 8B
Compound,degree of prolongation of blockade (in words) (sciatic nerve [1]; in the suspending medium with bupivacaine microspheres),increase in the duration of blockade or anesthesia effect due to dexamethasone in the microspheres (sciatic nerve [2]),augmenting of motor blockade compared (in words) (sciatic nerve [3]),in vitro release rate of dexamethasone from microspheres (in words) [4],dexamethasone released from pellets ([5]; by Day 21),dexamethasone released from pellets ([5]; by Days 7-8),sciatic blockade by itself in solution (in words) (sciatic nerve [6]),sciatic blockade by itself in solution (in words) (sciatic nerve [6]; listed as Dexamethasone),prolongation of blockade from bupivacaine in solution (in words) (sciatic nerve [6]),prolongation of blockade from bupivacaine in solution (in words) (sciatic nerve [6]; listed as Dexamethasone),restoration of motor anesthesia (in words) (sciatic nerve [7]),effect on duration of blockade obtained using bupivacaine microspheres (in words) (sciatic nerve [1]; added to the suspending medium at 0.05% to 0.5%),"sensory blockade compared (in words) (sciatic nerve [1]; in the injection fluid with bupivacaine microspheres, FIG. 5A)"
"C[C@H]1C[C@@H]2[C@H]([C@@H](O)C[C@@]3(C)[C@H]2CC[C@]3(O)C(=O)CO)[C@@]2(C)C=CC(=O)C=C12 [Methylprednisolone, methylprednisolone]",intermediate degrees of blockade or sensory effect prolongation,,,,,,,,,,,,
C[C@@H]1C[C@H]2[C@@H]3CCC4=CC(=O)C=C[C@]4(C)[C@@]3(F)[C@@H](O)C[C@]2(C)[C@@]1(O)C(=O)CO [dexamethasone],,five to fourteen fold,approximately equivalent in augmenting motor blockade or anesthesia effect,approximately the same rate as bupivacaine,97%,Approximately 60%,does not produce sciatic blockade or anesthesia effect by itself,did not produce any sciatic blockade or anesthesia effect,did not prolong blockade or anesthesia effect,nor did it prolong blockade or anesthesia effect,rapid restoration of the motor anesthesia,prolonged the duration of blockade or anesthesia effect,optimal for sensory blockade or anesthesia effect
"C[C@H]1C[C@H]2[C@@H]3CCC4=CC(=O)C=C[C@]4(C)[C@@]3(F)[C@@H](O)C[C@]2(C)[C@@]1(O)C(=O)CO [Betamethasone, betamethasone]",,,approximately equivalent in augmenting motor blockade or anesthesia effect,,,,,,,,,,

# Source: US6426339B1, “Formulations and methods for providing prolonged local anesthesia” (Children's Medical Center Corporation, priority 1996, dated 2002)
